# Test results published in publication doi:10.1101/2024.04.25.591189.
# Results are given in words; binding and its absence hold for the method and conditions named. In cells and extracts the contact can be indirect. Some entries that bind do so weakly or less than the wild type. Tags and fused reporters may be left off the sequences shown.
# T1: Mei5 (wild-type, S. cerevisiae SK1) (S. cerevisiae (endogenous in SK1 diploid cells)) (UniProt P32489)
# T1 sequence: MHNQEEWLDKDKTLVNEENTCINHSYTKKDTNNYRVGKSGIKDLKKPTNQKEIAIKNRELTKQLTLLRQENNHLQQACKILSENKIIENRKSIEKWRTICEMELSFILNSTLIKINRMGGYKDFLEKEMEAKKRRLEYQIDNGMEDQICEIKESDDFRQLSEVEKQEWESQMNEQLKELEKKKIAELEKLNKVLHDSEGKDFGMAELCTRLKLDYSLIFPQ
# Target: T1, Mei5 (wild-type, S. cerevisiae SK1) (S. cerevisiae (endogenous in SK1 diploid cells))
# Assay: co-IP
binder,measurement,value
"Sae3-Flag (protein, UniProt P89114 1-91) MNYLETQLNKKQKQIQEYESMNGNLIKMFEQLSKEKKNDETPKKISSTYIKELKEYNELRDAGLRLAQIIADEKQCKIKDVFEEIGYSMKD",binding,binds
